# The campaign covered roughly 320,000 compounds. About 22,000 (6.9%) were called active. This list was built around the results that the source calls inconclusive (neither active nor inactive); the mix of calls is not that of the screen. Calls follow the shape of the dose curve; as a rule, active = well fitted inhibition curve with a large enough effect; inconclusive = small, poorly fitted or top-dose-only effect, or another doubt; inactive = no such curve, though single readings can be large or run the other way. Potencies beside an inconclusive call are fits to weak or partial responses and may not hold up.
# Assay: Primary qHTS for delayed death inhibitors of the malarial parasite plastid, 96 hour incubation
# Conditions: P. falciparum luciferase reporter growth; series mostly up to 28.7 µM; activity change, negative = inhibition: at the top concentration
# Summary of the method: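 Erythrocytes infected with luciferase-expressing P. falciparum were dispensed at 2% hematocrit and 0.05% parasitemia (final), then incubated with compounds 96 hours at 37 C in 5% CO2. Luminescence after detection reagent addition reported growth.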
# % is scaled to controls: 0 for no effect and ±100 for the full control effect; potency is read from the fitted curve at half-maximal effect.
Compound,Potency,"activity change, negative = inhibition"
CCC(=O)N/N=C/c1ccc(-c2ccc([N+](=O)[O-])cc2)o1,active: 10.4 µM,
COc1cccc(OC)c1C(=O)Nc1ccc2c(c1)OCCO2,,inactive: 14.5%
O=C(Oc1ccc(NC2=NS(=O)(=O)c3ccccc32)cc1)c1cccnc1,,inactive: -11.2%
Cc1cccc(CS(=O)(=O)Cc2ccc(C(=O)NCCCN3CCCC3)o2)c1,"inconclusive: 18.5 µM [inhibitor, single point]",
N#Cc1cc2c(nc1SCC(N)=O)CCCCC2,,inactive: 135%
NC(=O)c1ccccc1NC(=O)/C=C/c1c(Cl)cccc1Cl,active: 13.1 µM,
COc1ccc(-c2ccc(SCC(=O)NCc3ccco3)nn2)cc1OC,active: 5.22 µM,
Cc1cc(C)c(S(=O)(=O)N2CCCCC2CCNC(=O)C(=O)NCc2ccco2)c(C)c1 (configuration not stated),"inconclusive: 10.4 µM [inhibitor, single point]",
O=C(Nc1cccc(Cl)c1N1CCOCC1)c1cccs1,"inconclusive: 9.28 µM [inhibitor, single point]",
COC(=O)C1=C(C)NC(C)=C(C(=O)OCC2CCCO2)C1c1cccc(Cl)c1 (configuration not stated),"inconclusive: 2.94 µM [inhibitor, partial curve, poor fit]",
Cc1cccc(N(C(=O)CCC(=O)Nc2nccs2)C(C(=O)NC(C)(C)C)c2ccc(O)cc2)c1 (configuration not stated),,inactive: 16.2%
Cc1ccc(NC(=O)CSCC(=O)N2CCN(Cc3ccc4c(c3)OCO4)CC2)cc1,"inconclusive: 18.5 µM [inhibitor, partial curve, poor fit]",
CCOC(=O)c1[nH]c2c(c1-c1ccc(OC)cc1)C(=O)CC(c1ccc(OC)c(OC)c1)C2 (configuration not stated),active: 8.28 µM,
Cc1ccc2c(CNCc3ccco3)cc(=O)oc2c1,,inactive: 61.9%
O=C(c1ccc2n[nH]nc2c1)N1CCN(c2ccc(C(F)(F)F)cn2)CC1,"inconclusive: 11.7 µM [inhibitor, partial curve, poor fit]",
COc1ccc2c(COC(=O)CNS(=O)(=O)c3ccc(C)c(C)c3)cc(=O)oc2c1,,inactive: 4.86%
NNC(=O)C(=O)Nc1ccc(Cl)c(Cl)c1,,inactive: 23.6%
COC(=O)c1ccc(NC(=O)Nc2ccccc2F)cc1,"inconclusive: 18.5 µM [inhibitor, partial curve, poor fit]",
Cc1ccc2oc(=O)n(CCCOc3ccccc3)c2c1,,inactive: 79.7%
COc1ccc(/C=C2\CCC/C(=C\C=N\N(C)C)C2=O)cc1,"inconclusive: 10.4 µM [inhibitor, partial curve, poor fit]",
O=C(NCC1(c2ccccc2)CCCC1)c1cccc(Br)c1,"inconclusive: 10.4 µM [inhibitor, partial curve, poor fit]",
CC(=O)Nc1ccc(N/C=C/C(=O)c2ccc(C)cc2)cc1,"inconclusive: 18.5 µM [inhibitor, single point]",
Cc1cc(C)c2c(n1)nn1c(N3CCN(c4ccccn4)CC3)cc(C)nc21,active: 3.29 µM,
CCc1nc2ccc(C(=O)N(C)CC(=O)Nc3cccc(F)c3)cc2nc1CC,"inconclusive: 7.38 µM [inhibitor, partial curve, poor fit]",

# An excerpt from further up, for reference:
Compound,Potency,"activity change, negative = inhibition"
COC(=O)c1ccc(NC(=O)Nc2ccccc2F)cc1,"inconclusive: 18.5 µM [inhibitor, partial curve, poor fit]",
Cc1ccc2oc(=O)n(CCCOc3ccccc3)c2c1,,inactive: 79.7%
COc1ccc(/C=C2\CCC/C(=C\C=N\N(C)C)C2=O)cc1,"inconclusive: 10.4 µM [inhibitor, partial curve, poor fit]",

# Remaining list, next part:

Compound,Potency,"activity change, negative = inhibition"
Cn1c(/C=N/Nc2nc3ccccc3[nH]2)nc2ccccc21,"inconclusive: 2.62 µM [inhibitor, full curve]",
COc1ccc(C2=NN(CCC(=O)NCc3cccs3)C(=O)CC2)cc1,"inconclusive: 0.522 µM [inhibitor, full curve, poor fit]",
O=C(NC1CCCCC1)C(c1ccccc1F)N(C(=O)c1csnn1)C1CCCC1 (configuration not stated),"inconclusive: 13.1 µM [inhibitor, partial curve, poor fit]",
COc1ccc(CN2CCOCCOCCOCCOCCOCC2)cc1,,inactive: 15.1%
N#Cc1cn(CCOc2ccc(F)cc2)c2ccccc12,,inactive: 61.3%
Cc1nc(OCC(C)C)c2sc3nc4c(cc3c2n1)COC(C)(C)C4,,inactive: 121%
Cc1cccc(N(Cc2cc3ccc(C)cc3[nH]c2=O)S(=O)(=O)c2ccccc2)c1,"inconclusive: 9.28 µM [inhibitor, single point]",
Cc1cccc2nc(C(=O)Nc3cc(Cl)ccc3-n3cncn3)cn12,,inactive: 19.1%
O=C(COC(=O)c1cccc(S(=O)(=O)NCc2ccccc2)c1)c1ccc2c(c1)OCCO2,"inconclusive: 9.28 µM [inhibitor, partial curve]",
CCCS(=O)(=O)Nc1cccc(-c2cn3c(n2)SCC3)c1,,inactive: 14.2%
COC(=O)c1cc(S(=O)(=O)N2CCN(c3ccc(C(C)=O)cc3)CC2)c[nH]1,"inconclusive: 0.165 µM [inhibitor, full curve, poor fit]",
CC(C)(C)c1n[nH]c(=S)n(N)c1=O,"inconclusive: 0.0329 µM [inhibitor, full curve, poor fit]",
O=C(N/N=C/c1ccc2nccnc2c1)c1ccccc1O,,inactive: 70.8%
Clc1cccc(CSc2nnc(-c3ccccn3)n2Cc2ccco2)c1,"inconclusive: 18.5 µM [inhibitor, single point]",
CCN(CC)CCNC(=O)C(=O)Nc1cc2c3c(c1)CC(=O)N3CCC2,,inactive: 33.4%
CN(C)C(=O)CSc1nnc(Cc2ccccc2)n1CC1CCCO1 (configuration not stated),"inconclusive: 7.38 µM [inhibitor, partial curve, poor fit]",
CC(=O)c1ccc(NC(=O)C(C)N2CCN(C/C=C/c3ccccc3)CC2)cc1 (configuration not stated),"inconclusive: 18.5 µM [inhibitor, single point]",
CCC(CC)C(=O)Nc1nnc(S(=O)(=O)N2c3ccccc3CC2C)s1 (configuration not stated),,inactive: 33.3%
CC(NC(=O)c1ccc(F)cc1)C(=O)NC1=NCCS1 (configuration not stated),"inconclusive: 10.4 µM [inhibitor, single point]",
CC(C)OC(=O)c1ccc(NC(=O)c2cncc(Br)c2)cc1,,inactive: 36.1%
COc1ccc(/C=N/Nc2cc(N3CCOCC3)ncn2)c(OC)c1,"inconclusive: 18.5 µM [inhibitor, single point]",
CCOC(=O)C1=C(CC)Nc2ccccc2N/C1=N\S(=O)(=O)c1cc(Br)ccc1Br,"inconclusive: 14.7 µM [inhibitor, single point]",
CCOC(=O)C1(Cc2cccc(OC)c2)CCN(Cc2cccc(OC)c2O)CC1,active: 13.1 µM,

# — PubChem BioAssay AID504834 (National Center for Advancing Translational Sciences (NCATS), 2011)
